Percent effect of library compounds

Measurements from “University of Dundee, Small-Polar-MMV Screening Library” (2021), ChEMBL document CHEMBL3988442.

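Whole-parasite assay of Trypanosoma brucei over 72 hours; the read-out is not stated. Compounds at 30 µM. The record gives no direction; compounds that gave an IC50 in retests scored well above the rest, so higher reads as stronger inhibition. Values scatter widely below zero; nearly all retest evidence comes from the higher of the two concentrations used. Of about 64,000 compounds tested this way, about 940 (1.5%) reached 50% or more in at least one test.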

Results are given as percent effect. The record does not define 0% and 100%; most values in the screen are far below 50% and negative numbers occur (in some assays of this library far below -100). Compounds were drawn at random from those tested, without regard to their results.

With COCC(=O)Nc1ccc(-c2noc([C@@H]3CCCN3C(C)C)n2)cn1 the screen gave -3.027%. With COc1ccccc1-c1nnc2n1NC(N)=C(C#N)S2 the screen gave -47.45%. Result for Cc1cc(S(=O)(=O)N(C)CC(N)=O)ccc1Br was 4.64%. With O=C(C1=CCCC1)N1CCC[C@]2(C[C@@H](OCc3ccccn3)CO2)C1.O=C(O)C(F)(F)F the screen gave 7.847%. For [H][C@@]12CS(=O)(=O)C[C@]1([H])N(S(=O)(=O)c1cn(C)cn1)CCN2CC=C(C)C the result was -16.67%.

CCN(Cc1noc(C2CC2)n1)Cc1ccc(C#N)cc1F gave -3.882%. CC(C)c1noc(CCNC(=O)N2CCSC(C(C)C)C2)n1 (centres unmarked) gave -22.05%. With [H][C@@]12CCN(C(=O)c3ccncc3)C[C@@]1([H])O[C@@H](C)C2 the screen gave -20.75%. Result for CCn1ccnc1C1CCN(C(=O)C(O)c2ccc(OC)cc2)CC1 (centres unmarked) was -8.525%. Result for CCC[C@H]1CN(Cc2cc(C#N)n(C)c2C)C[C@@H]1NS(=O)(=O)CC was -3.931%.

Result for CCC(=O)NCCc1cc(N2CCN(C(C)=O)CC2)nc(C2CC2)n1 was -0.928%. With Cc1ccc(C)c(CSc2nnc([C@@H](N)C(C)C)o2)c1.Cl the screen gave -38.36%. CCN(CC)c1ncc(CNC2CCc3ncnn3C2)s1 (centres unmarked) read -8.474%. Cc1ccc(C2CSCCN2C(=O)c2cccs2)o1 (centres unmarked) read -15.34%. Result for Cc1nc(C)c(C(=O)NCCNC(=O)c2ccc(F)cc2F)s1 was 42.19%.

Result for COCC1c2c(cnn2CC2CC2)CCN1Cc1cc(C)on1.O=C(O)C(F)(F)F.O=C(O)C(F)(F)F (centres unmarked) was -8.561%. CNC(=O)Cn1c(-c2ccco2)nn(-c2ccccc2OC)c1=O read -17.33%. Result for CCc1nc(CN(C(C)=O)C2CCN(Cc3cnc(C)cn3)C2)no1 (centres unmarked) was -92.07%. c1ccc2cc(OCCN3CCn4c(nnc4C4CC4)C3)ccc2c1 read -37.6%. N#Cc1ccc(OCCNCCn2cccn2)cc1 gave -17.24%.

O=C(O)C(F)(F)F.[H][C@@]12COC[C@@H](C(=O)N3CCCCO3)[C@]1([H])CN(Cc1c(C)noc1C)C2 read -85.49%. For O=C(O)C(F)(F)F.[H][C@@]12C[C@H](C(=O)N3CCCCO3)CN(Cc3ccccn3)[C@]1([H])CCO2 the result was -72.42%. Result for Cc1ccc(C(=O)Nc2nnc(C(C)C)s2)c(-n2cnnn2)c1C was -11.64%. Cc1ccc(CN2CCCC3(CCN(Cc4ccc(C)o4)C3)C2)o1 (centres unmarked) gave -6.299%. CCc1cc(N[C@H](C(N)=O)[C@@H](C)CC)n2nccc2n1 read -2.548%.

CN1CCCN(c2nccc(-c3c[nH]c4ccc(Br)cc34)n2)CC1 gave 99.21%. For O=C1CCc2cc(OCCN3CCc4cncnc4C3)ccc2N1 the result was -16.95%. COc1cccc(C2(C(=O)NC3CCc4nccn4C3)CCCC2)c1 (centres unmarked) gave 42.25%. Result for c1ccc(N2CCCC3(CCN(Cc4nccs4)C3)C2)nc1 (centres unmarked) was -0.6868%. With C=C(C)COc1cccc(C(=O)N(CC)Cc2nccn2C)c1 the screen gave -30.89%.

Result for CCCC(=O)N1CCC(c2nc(O)c3c(n2)CCN(C2CCCC2)C3)C1 (centres unmarked) was -8.979%. O=C(NCc1cccnc1)N1CCn2c(Cn3cccn3)cnc2C1 gave -14.65%. For [H][C@@]12C[C@H](C(=O)NCc3ccccc3)[C@@]([H])(CN(S(=O)(=O)C3CC3)C1)O2 the result was -1.425%. CC(C)(NC(=O)c1ccc(-c2ccc(F)cc2)s1)C(N)=O read -4.096%. For CCS(=O)(=O)N1CCC2(CC1)CN(CC1CCOC1)c1ccccc12.O=C(O)C(F)(F)F (centres unmarked) the result was 14.83%.

With O=c1n(Cc2ccccc2F)nc2ncccn12 the screen gave -20.28%. With O=C(CN1CCc2cncnc2C1)Nc1ccc(Cl)cn1 the screen gave -17.9%. Cn1cc(CN2CCC(CCC(=O)NC3CC3)CC2)cn1 read -29.78%. For CC(C)n1cnnc1CN(C)CC1CCCNC1 (centres unmarked) the result was -16.25%. Result for N#Cc1ccc(N2CCN(c3cnccn3)CC2)cc1C(F)(F)F was -62.43%.

COc1ccccc1Oc1ncccc1CNC(=O)C(O)C(F)(F)F (centres unmarked) gave -1.63%. Result for CSc1ccsc1C(=O)NC(Cc1ccccc1)C(N)=O (centres unmarked) was -21.67%. With O=C(O)C(F)(F)F.O=C(O)C(F)(F)F.[H][C@@]12CCN(CC3CC3)[C@]1([H])CC[C@H](C(=O)NCCc1ccncc1)O2 the screen gave -7.823%. With O=C(O)C(F)(F)F.[H][C@]12CCN(C(=O)c3cccs3)CC[C@]1([H])N(CCOC)CCO2 the screen gave -74.47%. For COCC(NC(=O)c1cn(-c2cccc(Cl)c2F)nn1)C1CC1 (centres unmarked) the result was -5.62%.

Result for O=C(Cc1ccc2c(c1)CCO2)Nc1ccc(-n2cncn2)nc1 was -33.54%. For Cc1ccnc(C2CCN(c3ccnc(C)n3)C2)n1 (centres unmarked) the result was 25.92%. O=C(c1ccc(-c2cccc3c2CCNC3)o1)N1CCCC1 read 27.41%. With Cc1nnsc1C(=O)N1CCC2(CC1)c1nc[nH]c1CCN2CC(C)C the screen gave -8.221%. For Cl.Cn1nc(C2CCCN(Cc3cccc(F)c3)C2)c2nccnc21 (centres unmarked) the result was 19.11%.

For CCC(C)NC(=O)c1cc(S(=O)(=O)N(C)C)c(C)s1 (centres unmarked) the result was -2.823%. For CC(C)S(=O)(=O)NCc1cccnc1Oc1ccc(F)cc1F the result was -3.668%. CCc1cc(N[C@@H](CC(C)C)C(N)=O)n2nc(C)c(C)c2n1 read -13.79%. With Cc1cccc(CN2CCCC23CCNC3)n1 (centres unmarked) the screen gave -16.7%. For Cc1ccsc1C(=O)NC(C)c1ccc2c(c1)CCC(=O)N2 (centres unmarked) the result was -10.9%.

COc1cccc(CN2CCC3(CCN(C(=O)[C@H]4CCCO4)CC3)C2)c1.O=C(O)C(F)(F)F gave -9.565%. CCCN(CCc1ccccn1)C(=O)Cn1cnnn1 gave -47.19%.

For reference, 4 entries once more:

CCCC(=O)N1CCC(c2nc(O)c3c(n2)CCN(C2CCCC2)C3)C1 (centres unmarked) gave -8.979%.
Cc1ccc(C2CSCCN2C(=O)c2cccs2)o1 (centres unmarked) gave -15.34%.
CCN(CC)c1ncc(CNC2CCc3ncnn3C2)s1 (centres unmarked) gave -8.474%.
CCS(=O)(=O)N1CCC2(CC1)CN(CC1CCOC1)c1ccccc12.O=C(O)C(F)(F)F (centres unmarked) gave 14.83%.